Experimental data from article PMC3962490, “The Yeast Ess1 Prolyl Isomerase Controls Swi6 and Whi5 Nuclear Localization” (G3: Genes|Genomes|Genetics, 2014).
No constants are given. Whether binding was seen depends on the method and setting. Binding seen in cells or lysates may run through a third protein. Some results given as binding are weak or reduced against the parent protein; the word gives no strength. Where a sequence is shown, tags or fusion partners need not be part of it.

Columns and labels:
[1] = target: T1, TAP-tagged Whi5 (S. cerevisiae) (UniProt Q12416); test: co-IP; TAP-tagged Swi6 or Whi5 precipitated from yeast cell extract with rabbit IgG-agarose beads (Protein A moiety of the tag), overnight at 4°, binding buffer 20 mM Tris-HCl pH 8.0, 137 mM NaCl, 1% NP-40, 2 mM EDTA; Western blot with anti-Ess1 antibody
T1 sequence: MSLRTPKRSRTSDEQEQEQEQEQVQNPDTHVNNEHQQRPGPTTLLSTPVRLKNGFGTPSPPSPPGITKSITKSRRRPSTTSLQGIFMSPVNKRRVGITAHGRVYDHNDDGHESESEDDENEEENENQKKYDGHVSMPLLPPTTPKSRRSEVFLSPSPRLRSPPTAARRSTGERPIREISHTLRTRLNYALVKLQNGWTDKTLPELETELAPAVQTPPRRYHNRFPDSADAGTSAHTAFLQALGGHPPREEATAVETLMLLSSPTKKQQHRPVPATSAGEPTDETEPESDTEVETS

[2] = target: T2, TAP-tagged Swi6 (S. cerevisiae) (UniProt P09959); test: as above
T2 sequence: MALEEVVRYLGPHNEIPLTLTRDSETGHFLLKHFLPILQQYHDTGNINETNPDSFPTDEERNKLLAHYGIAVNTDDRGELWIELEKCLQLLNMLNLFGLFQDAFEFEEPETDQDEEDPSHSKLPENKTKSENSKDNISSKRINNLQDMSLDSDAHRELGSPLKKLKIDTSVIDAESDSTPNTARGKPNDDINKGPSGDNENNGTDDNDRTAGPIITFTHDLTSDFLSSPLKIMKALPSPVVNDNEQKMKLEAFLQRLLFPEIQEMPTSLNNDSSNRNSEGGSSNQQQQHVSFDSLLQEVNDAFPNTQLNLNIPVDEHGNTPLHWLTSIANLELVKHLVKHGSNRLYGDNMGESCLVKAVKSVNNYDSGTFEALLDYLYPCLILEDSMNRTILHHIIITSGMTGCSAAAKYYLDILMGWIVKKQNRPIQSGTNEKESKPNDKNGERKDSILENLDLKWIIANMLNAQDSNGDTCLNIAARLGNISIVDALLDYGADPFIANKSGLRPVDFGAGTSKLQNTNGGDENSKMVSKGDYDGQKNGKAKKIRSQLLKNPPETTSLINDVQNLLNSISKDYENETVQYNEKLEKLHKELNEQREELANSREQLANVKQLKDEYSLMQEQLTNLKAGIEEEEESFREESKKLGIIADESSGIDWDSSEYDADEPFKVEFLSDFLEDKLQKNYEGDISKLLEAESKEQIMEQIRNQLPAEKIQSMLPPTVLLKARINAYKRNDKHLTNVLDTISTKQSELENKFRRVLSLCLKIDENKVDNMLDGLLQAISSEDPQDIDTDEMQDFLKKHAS

binding [1]: binds
binding [2]: binds
B1: Ess1 (endogenous, yeast cell extract) (enzyme, UniProt P22696 1-170)
chain: MPSDVASRTGLPTPWTVRYSKSKKREYFFNPETKHSQWEEPEGTNKDQLHKHLRDHPVRVRCLHILIKHKDSRRPASHRSENITISKQDATDELKTLITRLDDDSKTNSFEALAKERSDCSSYKRGGDLGWFGRGEMQPSFEDAAFQLKVGEVSDIVESGSGVHVIKRVG
